In PubChem BioAssay AID504444 (National Center for Advancing Translational Sciences (NCATS), 2011):
Out of some 360,000 compounds screened, about 7,500 (2.1%) were called active. The inconclusive results got no clear call from the source; some entries with a clear call stand among them for comparison. The call rests on the fitted dose curve; in most records, active means well fitted inhibition curve with a large enough effect; inconclusive means small, poorly fitted or top-dose-only effect, or effect the other way; inactive means flat fitted curve, though single readings scatter. Potencies of inconclusive entries are doubtful fits and often do not repeat.

Assay: Nrf2 qHTS screen for inhibitors; further: nearly all actives have a fitted effect of over 60% in size
Details: A549 ARE-Fluc reporter, luciferase luminescence, 18-24 h; activity change, negative = inhibition: at 46 µM (top of the series)
Method in brief: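 In this cell-based qHTS, ARE-driven firefly luciferase in A549 cells reports Nrf2 activity; the luminescent signal after BugLite lysis is the measured value, with a prior CellTiter-Fluor read for cell health.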
On the % scale 0 is the no-effect control and ±100 the full control effect; potency means the concentration at half of the fitted maximal effect.

| SMILES | Potency | activity change, negative = inhibition |
| --- | --- | --- |
| Cc1cc[n+](CC(=O)c2ccc(NC(=O)c3ccccc3)cc2)c2ccccc12 | inconclusive: 16.4 µM [falling, partial curve, poor fit] | – |
| Cc1ccc(S(=O)(=O)N2CCCCC2)cc1C(=O)OC(C)C(=O)NCC1CCCCC1 (configuration not stated) | inconclusive: 16.4 µM [falling, partial curve] | – |
| CCCn1c(SCc2nc(-c3ccc(OC)c(OC)c3)no2)nnc1-c1ccccc1 | inconclusive: 23.1 µM [falling, single point] | – |
| O=C1CCc2cc(S(=O)(=O)Nc3cccc(Oc4ccccc4)c3)ccc2N1 | inconclusive: 7.31 µM [falling, partial curve] | – |
| COc1ccc(NC(=O)Cn2nnc(-c3ccccc3NC(=O)c3ccco3)n2)cc1 | inconclusive: 14.6 µM [falling, partial curve] | – |
| Cc1ccc(CNC(=O)c2ccc(N3CCc4ccccc43)c([N+](=O)[O-])c2)cc1 | inconclusive: 23.1 µM [falling, single point] | – |
| CC(C)(C)c1ccc(C(=O)N2CCNCC2)cc1 | inconclusive: 3.26 µM [falling, partial curve, poor fit] | – |
| COc1ccc(-c2noc(CCC(=O)N(C)c3cccc(C)c3)n2)cc1 | inconclusive: 3.26 µM [falling, partial curve] | – |
| OC1CCCN(c2c3c(nc4cc(-c5cccc(Cl)c5)nn24)CCC3)C1 (configuration not stated) | active: 4.61 µM | – |
| COC(=O)c1sc(NC(=O)c2ccc(OC)cc2OC)nc1C | inconclusive: 0.146 µM [activator, full curve, poor fit] | – |
| O=C(NCc1cccc(Cl)c1)c1ccc2ccccc2n1 | inconclusive: 18.4 µM [activator, single point] | – |
| CCCc1nc(SC)ncc1C(=O)N1CCN(c2ccc(Cl)cc2)CC1 | – | inactive: 2.7% |
| CN(c1ccc(C(=O)NCCSC(C)(C)C)cc1)S(C)(=O)=O | inconclusive: 3.66 µM [activator, full curve, poor fit] | – |
| O=C(Nc1ccc2nc(SCC(=O)N3CCc4ccccc43)sc2c1)c1ccc(F)cc1 | inconclusive: 18.4 µM [falling, partial curve] | – |
| O=c1c2oc3ccccc3c2n(Cc2ccccc2Cl)c(=O)n1Cc1ccco1 | – | inactive: 2.71% |
| COc1ccc(NC(=O)c2ccccc2)c([N+](=O)[O-])c1 | inconclusive: 1.16 µM [activator, full curve, poor fit] | – |
| COc1ccc(Nc2ncnc3sc(C)cc23)cc1 | inconclusive: 2.31 µM [activator, partial curve] | – |
| Cc1cnn(-c2cc(N/N=C/c3cccc(F)c3)ncn2)c1 | inconclusive: 29.1 µM [falling, single point] | – |
| COc1ccc(S(=O)(=O)N(CCN2CCOCC2)Cc2cc(OC)ccc2OC)cc1 | inconclusive: 6.51 µM [falling, single point] | – |
| CCCCC(=O)N1CCN(c2nc3ccc(Cl)cc3s2)CC1 | inconclusive: 29.1 µM [falling, single point] | – |
| Cc1cc(NCCO)c2ccccc2n1 | inconclusive: 4.11 µM [activator, partial curve, poor fit] | – |

Random excerpt: 2 entries already listed, in no set order.

| SMILES | Potency | activity change, negative = inhibition |
| --- | --- | --- |
| Cc1cc[n+](CC(=O)c2ccc(NC(=O)c3ccccc3)cc2)c2ccccc12 | inconclusive: 16.4 µM [falling, partial curve, poor fit] | – |
| CCCCC(=O)N1CCN(c2nc3ccc(Cl)cc3s2)CC1 | inconclusive: 29.1 µM [falling, single point] | – |

Going on with the list:

| SMILES | Potency | activity change, negative = inhibition |
| --- | --- | --- |
| CCOc1ccc2nc(Cl)c(CN(C(C)=O)C3CCCCC3)cc2c1 | – | inactive: -6.74% |
| COc1ccc(S(=O)(=O)N(C)C)cc1NC(=O)C1CCN(c2ncnc3sc(C)c(C)c23)CC1 | active: 11.6 µM | – |
| COc1ccc(NC(=O)C(=O)NCC(c2cccnc2)N2CCc3ccccc32)cc1OC (configuration not stated) | inconclusive: 2.31 µM [activator, partial curve, poor fit] | – |
| O=C(c1cc(COc2ccc(F)cc2Cl)on1)N1CCCC(c2ccccc2)C1 (configuration not stated) | inconclusive: 29.1 µM [falling, single point] | – |
| Cc1c(C2=CCN(S(=O)(=O)c3cccc(Cl)c3)CC2)c2ccccc2n1CC(=O)N1CCCC1 | inconclusive: 13 µM [falling, partial curve, poor fit] | – |
| Clc1ccccc1-c1ccc2ncnc(NCc3cccs3)c2c1 | inconclusive: 18.4 µM [falling, single point] | – |
| CCCC(=O)C1=C(O)C(c2cccc(Oc3ccccc3)c2)CCC1=O (configuration not stated) | active: 18.4 µM | – |
| CCCn1c(C)cc(C(=O)Cn2nnc3ccccc3c2=O)c1C | inconclusive: 2.31 µM [activator, partial curve] | – |
| Nc1nc(CSc2ccccc2)nc(N2CCCCC2)n1 | inconclusive: 11.6 µM [activator, partial curve] | – |
| COc1c(C)cc(C(=O)C2CCCN(C(=O)c3cccc(-n4cccn4)c3)C2)cc1C (configuration not stated) | – | inactive: -10.2% |
| O=C(NCC(c1cccnc1)N1CCN(c2ccc(F)cc2)CC1)OCc1ccccc1 (configuration not stated) | inconclusive: 32.6 µM [falling, single point] | – |
| CCc1ccc(-c2nc3c(c(SCc4ccccc4F)n2)Cc2c(CO)cnc(C)c2O3)cc1 | inconclusive: 5.8 µM [activator, partial curve, poor fit] | – |
| COc1ccc(Br)cc1C(C[N+](=O)[O-])c1c(N)n(C)c(=O)n(C)c1=O (configuration not stated) | inconclusive: 9.2 µM [falling, partial curve, poor fit] | – |
| Cn1cc(/C=C2\SC(=O)NC2=S)c2ccccc21 | – | inactive: -20.1% |
| CC(C)CCOCC(O)CCC(=O)NNC(=S)Nc1ccccc1 (configuration not stated) | inconclusive: 29.1 µM [falling, single point] | – |
| CC1CCc2nn(CC(=O)Nc3ccccc3Cl)cc2C1 (configuration not stated) | inconclusive: 16.4 µM [activator, partial curve] | – |
| Cn1c(=O)c2c(n3cnnc13)-c1ccccc1CC21CCCC1 | – | inactive: -25.9% |
| COc1cc(/C=C/C(=O)C2C(=O)C=C(C)OC2=O)cc(OC)c1O (configuration not stated) | – | inactive: 1.31% |
| COc1ccc2c(c1)-c1c(ssc1=S)C(C)(C)N2 | inconclusive: 10.3 µM [falling, partial curve, poor fit] | – |
| C=CCNC(=O)N1CCc2[nH]c3ccc(F)cc3c2C1 | inconclusive: 8.2 µM [falling, partial curve, poor fit] | – |
| COc1ccc(Cc2nnc(SCc3ccc([N+](=O)[O-])cc3)o2)cc1 | inconclusive: 20.6 µM [falling, single point] | – |
